The list is a part of this screen's results and no random one: it is rich in T/C values a quarter to a half above the control, in often repeated tests (any T/C) and in doses without a T/C. Further doses and runs are listed elsewhere. T/C is the treated group as % of the vehicle group. Some doses have a count of surviving animals in place of a T/C: the source files T/C as zero there, which appears to mark a toxic dose or a test without result, not a measured value. Some survivor counts are full or nearly so, which does not show that the dose was tolerated: the source hardly ever lists a survival T/C far under the control, and the zero likely stands for such cases as well. Counts of survivors are from the toxicity check (mostly the fifth day) where no day follows; animals may have died later. Schedule codes are those of the source, read here as Q, the interval in days (D) or hours (H), X, the number of doses. Some entries were tested several times; the results are listed from low to high. For survival time, this PubChem deposit counts one and a half times the control or more as active, and values a quarter to a half above the control carry no call in these data; other NCI protocols may use other cut-offs. Some T/C values carry the count of animals alive at the toxicity check (mostly the fifth day); where none is given, no animal had died by that day.
Tested on: CD2F1 mice, L1210 leukemia ip, survival T/C
Experiment: NCI In Vivo Anticancer Drug Screen. Data for tumor model L1210 Leukemia (intraperitoneal) in CD2F1 (CDF1) mice
Conditions: higher T/C = longer survival
In short: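 Activity against a transplanted murine tumor was judged by comparing the compound group with a vehicle group. The outcome in the treated animals was divided by that in the controls.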

[1] = T/C endpoint: mean survival time, dose: 100.0 mg/kg/injection, schedule: Q01DX001 (ip), vehicle: saline
[2] = T/C endpoint: mean survival time, dose: 200.0 mg/kg/injection, schedule: Q01DX009 (ip), vehicle: saline with Tween-80
[3] = T/C endpoint: mean survival time, dose: 400.0 mg/kg/injection, schedule: Q04DX003 (ip), vehicle: saline sonified
[4] = T/C endpoint: mean survival time, dose: 200.0 mg/kg/injection, schedule: Q04DX003 (ip), vehicle: saline with Tween-80
[5] = T/C endpoint: mean survival time, dose: 200.0 mg/kg/injection, schedule: Q01DX009 (ip), vehicle: saline
[6] = T/C endpoint: mean survival time, dose: 400.0 mg/kg/injection, schedule: Q01DX001 (ip), vehicle: saline with Tween-80
[7] = T/C endpoint: mean survival time, dose: 400.0 mg/kg/injection, schedule: Q04DX003 (ip), vehicle: saline with Tween-80
[8] = T/C endpoint: mean survival time, dose: 100.0 mg/kg/injection, schedule: Q01DX001 (ip), vehicle: saline with Tween-80

In the case of O=P1(NCCCl)OCCCN1CCCl (centres undefined), the T/C (T/C endpoint: mean survival time, dose: 50.0 mg/kg/injection, schedule: Q01DX001 (ip), vehicle: DMSO) was 127 % of control, the T/C [1] was 128 % of control and the survivor count (T/C endpoint: median survival time, dose: 500.0 mg/kg/injection, schedule: Q01DX001 (ip), vehicle: water) was 2 of 8.

In the case of COC(=O)C(CSC(c1ccccc1)(c1ccccc1)c1ccccc1)NC(=O)CCNC(=O)OCc1ccccc1 (centres undefined), the survivor count (T/C endpoint: mean survival time, dose: 200.0 mg/kg/injection, schedule: Q01DX009 (ip), vehicle: water) was 6 of 6.

For CCN(CC)c1cccc(O)c1, the survivor count [2] was 4 of 6.

O=C1NNC(=O)C2C3CCC(C3)C12 (centres undefined) was tested, and the survivor count [3] was 0 of 6.

In the case of O=C1OC(=O)C2C3C=CC(O3)C12 (centres undefined), the survivor count (T/C endpoint: mean survival time, dose: 40.0 mg/kg/injection, schedule: Q01DX009 (ip), vehicle: saline with Tween-80) was 0 of 6, the survivor count (T/C endpoint: mean survival time, dose: 200.0 mg/kg/injection, schedule: Q04DX002 (ip), vehicle: saline) was 0 of 3 and the survivor count (T/C endpoint: mean survival time, dose: 400.0 mg/kg/injection, schedule: Q04DX002 (ip), vehicle: saline) was 0 of 3.

In the case of Brc1ccc(-c2csc(Nc3nc(-c4ccc(Br)cc4)cs3)n2)cc1, the survivor count (T/C endpoint: mean survival time, dose: 100.0 mg/kg/injection, schedule: Q04DX003 (ip), vehicle: saline with Tween-80) was 6 of 6 and the survivor count [4] was 6 of 6.

With CNC(=O)c1ccc[n+](CC(=O)NCc2ccccc2)c1 the survivor count (T/C endpoint: mean survival time, dose: 200.0 mg/kg/injection, schedule: Q04DX003 (ip), vehicle: saline) was 3 of 6 and the survivor count (T/C endpoint: mean survival time, dose: 400.0 mg/kg/injection, schedule: Q04DX003 (ip), vehicle: saline) was 0 of 6.

With O=c1n[n+]([O-])ccn1C1OC(CO)C(O)C1O (centres undefined) the T/C (T/C endpoint: mean survival time, dose: 100.0 mg/kg/injection, schedule: Q01DX009 (ip), vehicle: saline) was 134 % of control, the T/C [5] was 129, 130, 137, 139 % of control and the T/C (T/C endpoint: mean survival time, dose: 300.0 mg/kg/injection, schedule: Q01DX009 (ip), vehicle: saline) was 125 % of control. For the same compound, the T/C (T/C endpoint: mean survival time, dose: 400.0 mg/kg/injection, schedule: Q01DX009 (ip), vehicle: saline) was 125 [4 of 6 alive] and 139 % of control, the T/C (T/C endpoint: mean survival time, dose: 450.0 mg/kg/injection, schedule: Q01DX009 (ip), vehicle: saline) was 144 % of control and the survivor count (T/C endpoint: mean survival time, dose: 600.0 mg/kg/injection, schedule: Q01DX009 (ip), vehicle: saline) was 1 of 6 and 5 of 6. For the same compound, the T/C (T/C endpoint: median survival time, dose: 88.0 mg/kg/injection, schedule: Q01DX009 (ip), vehicle: saline) was 125 % of control, the T/C (T/C endpoint: median survival time, dose: 103.68 mg/kg/injection, schedule: Q01DX009 (ip), vehicle: saline) was 128 % of control and the T/C (T/C endpoint: median survival time, dose: 133.3 mg/kg/injection, schedule: Q01DX009 (ip), vehicle: saline) was 129 % of control. The T/C (T/C endpoint: median survival time, dose: 133.5 mg/kg/injection, schedule: Q01DX009 (ip), vehicle: saline) was 131 % of control, the T/C (T/C endpoint: median survival time, dose: 172.8 mg/kg/injection, schedule: Q01DX009 (ip), vehicle: saline) was 128 % of control and the T/C (T/C endpoint: median survival time, dose: 200.0 mg/kg/injection, schedule: Q01DX009 (ip), vehicle: saline) was 135 % of control. The survivor count (T/C endpoint: median survival time, dose: 600.0 mg/kg/injection, schedule: Q01DX009 (ip), vehicle: saline) was 6 of 10 and the survivor count (T/C endpoint: median survival time, dose: 800.0 mg/kg/injection, schedule: Q01DX009 (ip), vehicle: saline) was 1 of 10.

In the case of COc1cccc2c1C(=O)c1c(O)c3c(c(O)c1C2=O)C[C@@](O)(C(=O)COC(=O)c1cccnc1)C[C@@H]3OC1CC(N)C(O)C(C)O1 (some centres undefined), the T/C (T/C endpoint: mean survival time, dose: 0.75 mg/kg/injection, schedule: Q01DX009 (ip), vehicle: saline with Tween-80) was 133 % of control, the T/C (T/C endpoint: mean survival time, dose: 0.9 mg/kg/injection, schedule: Q01DX009 (ip), vehicle: saline) was 147 % of control and the T/C (T/C endpoint: mean survival time, dose: 1.5 mg/kg/injection, schedule: Q01DX009 (ip), vehicle: saline with Tween-80) was 138 % of control. The T/C (T/C endpoint: mean survival time, dose: 2.25 mg/kg/injection, schedule: Q01DX009 (ip), vehicle: saline) was 135 % of control.

O=C(O)Cc1ccccc1C(=O)O.[NH-]C1CCCCC1[NH-].[Pt+2] was tested, and the T/C (T/C endpoint: median survival time, dose: 100.0 mg/kg/injection, schedule: Q04DX003 (ip), vehicle: saline) was 125 and 130 % of control and the T/C (T/C endpoint: median survival time, dose: 200.0 mg/kg/injection, schedule: Q04DX003 (ip), vehicle: saline) was 128 and 134 % of control.

For CCSCCCC(=O)O, the survivor count (T/C endpoint: mean survival time, dose: 200.0 mg/kg/injection, schedule: Q04DX003 (ip), vehicle: saline sonified) was 3 of 6 and the survivor count [3] was 2 of 6.

O=c1[nH]c(=O)n(C2SC(CO)C(O)C2O)cc1F (centres undefined) was tested, and the T/C (T/C endpoint: mean survival time, dose: 600.0 mg/kg/injection, schedule: Q01DX009 (ip), vehicle: saline with Tween-80) was 128 % of control.

With CC(O)CC1CCCC(C)N1 (centres undefined) the survivor count [6] was 0 of 6 and the survivor count (T/C endpoint: mean survival time, dose: 400.0 mg/kg/injection, schedule: Q04DX002 (ip), vehicle: saline with Tween-80) was 0 of 3 and 1 of 6.

In the case of COc1cc([N+](=O)[O-])ccc1NC(=O)Nc1ccc(Cl)cc1, the survivor count [4] was 6 of 6 and the survivor count (T/C endpoint: mean survival time, dose: 400.0 mg/kg/injection, schedule: Q01DX009 (ip), vehicle: saline with Tween-80) was 3 of 6.

In the case of O=C1C(=O)C(Br)=C(Br)C(Br)=C1Br, the survivor count [7] was 6 of 6.

For CCc1nc(N)nc(N)c1-c1ccc(Cl)c([N+](=O)[O-])c1, the T/C (T/C endpoint: mean survival time, dose: 12.5 mg/kg/injection, schedule: Q01DX009 (ip), vehicle: saline with Tween-80) was 125 % of control, the T/C (T/C endpoint: mean survival time, dose: 25.0 mg/kg/injection, schedule: Q01DX009 (ip), vehicle: saline with Tween-80) was 130 % of control and the T/C (T/C endpoint: mean survival time, dose: 50.0 mg/kg/injection, schedule: Q01DX009 (ip), vehicle: saline with Tween-80) was 130 % of control.

With CCN(CC)Cc1cc(Nc2c3ccc(Cl)cc3nc3ccc(OC)nc23)ccc1O the survivor count [8] was 3 of 3.

With COc1ccc(NC(=O)Nc2c(Oc3ccc(Cl)cc3)ccc(Cl)c2S(=O)(=O)O)cc1Cl the survivor count [5] was 2 of 6 and the survivor count [7] was 0 of 6.

For COc1ccc(-c2nc3ccccc3nc2-c2ccc(OC)cc2)cc1, the survivor count [7] was 3 of 3.

In the case of COc1ccc2c(c1)-c1c(ccc(OC)c1O)CC(c1ccccc1)[N+](C)(C)CC2 (centres undefined), the survivor count [1] was 3 of 6, the survivor count (T/C endpoint: mean survival time, dose: 200.0 mg/kg/injection, schedule: Q01DX001 (ip), vehicle: saline) was 3 of 6 and the survivor count (T/C endpoint: mean survival time, dose: 400.0 mg/kg/injection, schedule: Q01DX001 (ip), vehicle: saline) was 0 of 6.

With O=c1[nH]c(=O)n(C2CC(O)C(CO)O2)cc1C(F)(F)F (centres undefined) the T/C (T/C endpoint: mean survival time, dose: 32.0 mg/kg/injection, schedule: Q01DX009 (ip), vehicle: water) was 147 % of control, the T/C (T/C endpoint: mean survival time, dose: 32.0 mg/kg/injection, schedule: Q03HX008 (ip), vehicle: water) was 128 % of control and the T/C (T/C endpoint: mean survival time, dose: 32.0 mg/kg/injection, schedule: Q03HX016 (ip), vehicle: water) was 129 % of control. For the same compound, the T/C (T/C endpoint: mean survival time, dose: 32.0 mg/kg/injection, schedule: Q03HX024 (ip), vehicle: water) was 142 % of control, the T/C (T/C endpoint: mean survival time, dose: 64.0 mg/kg/injection, schedule: Q03HX008 (ip), vehicle: water) was 125 % of control and the T/C (T/C endpoint: mean survival time, dose: 64.0 mg/kg/injection, schedule: Q03HX016 (ip), vehicle: water) was 145 % of control. For the same compound, the T/C (T/C endpoint: mean survival time, dose: 64.0 mg/kg/injection, schedule: Q03HX024 (ip), vehicle: water) was 148 % of control, the T/C (T/C endpoint: mean survival time, dose: 128.0 mg/kg/injection, schedule: Q01DX009 (ip), vehicle: water) was 140 % of control and the T/C (T/C endpoint: mean survival time, dose: 128.0 mg/kg/injection, schedule: Q03HX008 (ip), vehicle: water) was 142 % of control. For the same compound, the T/C (T/C endpoint: mean survival time, dose: 512.0 mg/kg/injection, schedule: Q04DX003 (ip), vehicle: water) was 130 % of control, the T/C (T/C endpoint: mean survival time, dose: 1024.0 mg/kg/injection, schedule: Q01DX001 (ip), vehicle: water) was 128 % of control and the T/C (T/C endpoint: mean survival time, dose: 1024.0 mg/kg/injection, schedule: Q04DX003 (ip), vehicle: water) was 145 % of control.

CCC1=CC(C)(C)CC(C)=C1 (tested in a mixture with another compound) was tested, and the survivor count [2] was 1 of 6.

C[C@@H]1C[C@@]2(C)[C@@H](CC[C@@H]3[C@@H]2CC[C@@]2(C)[C@H]3CC[C@]2(C)O)CC1=O was tested, and the survivor count [4] was 6 of 6 and the survivor count [7] was 5 of 6.

With Nc1nc(Cl)nc(Cl)n1 the survivor count [8] was 5 of 6, the survivor count (T/C endpoint: mean survival time, dose: 200.0 mg/kg/injection, schedule: Q01DX001 (ip), vehicle: saline with Tween-80) was 0 of 6 and the survivor count [6] was 0 of 6.
